Earlier results as cited in patent US20090068174A1, “THERAPEUTIC ALKALINE PROTEASE COMPOSITIONS AND USE IN FACILITATING THE TRANSPORT OF AGENTS ACROSS THE GASTROINTESTINAL MUCOSAL LINING” (Kansas University Medical Center Research Institute, Inc., priority 2007, published 2009).
Read-outs that look alike come from different tables or passages of the source.

What was measured:
[1] = Table 4; pH optima vary with substrate; cited from earlier work
[2] = Table 1; cited from earlier work

Molecule | pH optimum [1] | pH optimum [2]
26 kDa Protease: A. oryzae protease cloned recently by Novozyme, labeled the 26 kDa protease, SEQ ID NO: 3 (protein, listed as Aspergillus oryzae) HASADAWASSKAISSTSSPSSFKMRFISVSSLLLALAPALNAVPVEVAGSAQGLDVTLSQVGNTRIKAWKNTGSEDVTFVHLNFFKDAAPVQKVSLFRNATEVQFQGIKQRLITEGLSDDALTTLAPGATIEDEFDIASTSDLSEGGTITINSNGLVPITTDNKVTGYIPFTSNELSIDVDAAEAASVTQAVKILERRTKVTSCSGSRLSALQTALRNTVSLARAAATAAQSGSSSRFQEYFKTTSSSTRSTVAARLNAVANEAASTSSGSTTYYCSDVYGYCSSNVLAYTLPSYNIIANCDLYYSYLPALTSTCHAQDQATTTLHEFTHAPGVYSPGTDDLGYGYSAATALSASQALLNADTYALFANAVNLNC | 7.0 | 
Alkaline Protease: Aspergillus oryzae alkaline protease (oryzin), SEQ ID NO: 2, purified from the protease powder of Example 1 (protein, listed as Aspergillus oryzae) MQSIKRTLLLLGAILPAVLGAPVQETRRAAEKLPGKYIVTFKPGIDEAKIQEHTTWATNIHQRSLERRGATGGDLPVGIERNYKINKFAAYAGSFDDATIEEIRKNEDVAYVEEDQIYYLDGLTTQKSAPWGLGSISHKGQQSTDYIYDTSAGEGTYAYVVDSGVNVDHEEFEGRASKAYNAAGGQHVDSIGHGTHVSGTIAGKTYGIAKKASILSVKVFQGESSSTSVILDGFNWAANDIVSKKRTSKAAINMSLGGGYSKAFNDAVENAFEQGVLSVVAAGNENSDAGQTSPASAPDAITVAAIQKSNNRASFSNFGKVVDVFAPGQDILSAWIGSSSATNTISGTSMATPHIVGLSLYLAALENLDGPAAVTKRIKELATKDWKDVKGSPNLLAYNGNA | pH 7-10 | 7.0-10.0
